Reference: PubChem BioAssay AID1259425 (University of Nebraska Medical Center, 2018)
Here is an unselected part of about 14,000 reagents tested. Reagents against one gene are numbered here. Further read-outs or replicates are left out here. The record does not give: the time to read-out.

Test: 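Find knockdowns that reproduce the gene expression pattern seen when KSR1 is lost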 (primary screen)
Cell system: HCT116 human colon cancer cells
Knock-down reagent: siRNA pool against human genes, 50 nM siRNA
Read-out: 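After 50 nM siRNA pool, branched-DNA assay measures six marker transcripts per well, minus blank, normalised to the geometric mean of two housekeeping transcripts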
Scale: BNIP3L mRNA: higher = more BNIP3L transcript after knockdown; NDRG1 mRNA: higher = more NDRG1 transcript after knockdown; BNIP3 mRNA: higher = more BNIP3 transcript after knockdown; ALDOC mRNA: higher = more ALDOC transcript after knockdown

The first 5 records as a preview:
no.	Gene	pool no.	BNIP3L mRNA, set 1	NDRG1 mRNA, set 1	BNIP3 mRNA, set 1	ALDOC mRNA, set 1
1	CX3CL1	1	0.0616	0.0637	0.246	0.0151
2	DOLK	1	0.266	0.502	0.326	0.0372
3	CSDE1	1	0.093	0.0809	0.447	0.011
4	MS4A8	1	0.0737	0.13	0.196	0.0129
5	PIGN	1	0.125	0.46	0.631	0.0285

The listing, from the start:
no.	Gene	pool no.	BNIP3L mRNA, set 1	NDRG1 mRNA, set 1	BNIP3 mRNA, set 1	ALDOC mRNA, set 1
1	CX3CL1	1	0.0616	0.0637	0.246	0.0151
2	DOLK	1	0.266	0.502	0.326	0.0372
3	CSDE1	1	0.093	0.0809	0.447	0.011
4	MS4A8	1	0.0737	0.13	0.196	0.0129
5	PIGN	1	0.125	0.46	0.631	0.0285
6	ATF2	1	0.0737	0.15	0.332	0.0397
7	COX5A	1	0.131	0.147	0.292	0.0216
8	HSD17B2	1	0.0947	0.196	0.284	0.0203
9	BTBD3	1	0.0724	0.285	0.223	0.0332
10	NAB2	1	0.109	0.136	0.288	0.0109
11	PPARGC1B	1	0.086	0.192	0.245	0.0196
12	RIBC2	1	0.235	1.74	0.708	0.0431
13	MTCL2	1	0.106	0.473	0.767	0.0568
14	ACTG1	1	0.125	0.241	0.267	0.0403
15	JAKMIP2	1	0.133	0.301	0.253	0.0513
16	FANCE	1	0.273	2.05	0.889	0.0507
17	GUCY1B1	1	0.0653	0.117	0.174	0.0298
18	APOBEC3G	1	0.0773	0.11	0.176	0.0345
19	HP	1	0.0572	0.0396	0.26	0.0927
20	MAFG	1	0.117	0.061	0.224	0.0161
21	MAFG	2	0.068	0.384	0.175	0.0148
22	MT2A	1	0.145	0.21	0.329	0.0299
23	H1-4	1	0.115	0.253	0.294	0.0255
24	KRT15	1	0.132	0.203	0.357	0.0159
25	PCDHA5	1	0.0769	0.0852	0.227	0.0154
26	MYL9	1	0.104	0.103	0.237	0.0157
27	ANXA2P3	1	0.101	0.215	0.426	0.019
28	ZNF423	1	0.171	0.161	0.451	0.0285
29	TMEM132B	1	0.115	0.657	0.273	0.0314
30	CDCA8	1	0.1	0.355	0.278	0.00979
31	TUBA1B	1	0.16	0.626	0.387	0.0197
32	ZNF667	1	0.0801	0.241	0.296	0.0437
33	ADH7	1	0.163	0.445	0.434	0.145
34	PIGT	1	0.201	0.456	0.406	0.0465
35	HINFP	1	0.0892	0.169	0.233	0.00874
36	OR2J2	1	0.211	0.211	0.364	0.0568
37	GSN	1	0.113	0.451	0.441	0.0126
38	ZNF767P	1	0.104	0.634	0.417	0.0495
39	GTF2I	1	0.237	0.252	0.484	0.00367
40	CILK1	1	0.0805	0.0844	0.208	0.0179
41	BET1	1	0.189	0.173	0.233	0.0189
42	METAP2	1	0.0876	0.281	0.213	0.0196
43	KCNA5	1	0.0358	0.162	0.207	0.0164
44	PTDSS1	1	0.272	0.23	0.287	0.085
45	NKX6-2	1	0.271	0.526	0.611	0.0501
46	LRRC40	1	0.351	0.791	0.403	0.079
47	SPNS1	1	0.212	0.159	0.274	0.0995
48	PSMA1	1	0.307	0.399	0.639	0.07
49	ANGPT4	1	0.0682	0.219	0.305	0.0113
50	FIRRM	1	0.163	0.787	0.44	0.038
